Measurements reported in patent US10689366B2, “Compounds for MALT1 degredation” (Cornell University, priority 2016, dated 2020).
Some entries share one result that the patent states for a list of compounds.

The compounds below were run against T1, MALT1 (Homo sapiens, UniProt Q9UDY8) (assay: MALT1 degradation assay (Western blot) in OCI-Ly3 cells). Conditions: 6 hours, indicated concentrations.
T1 sequence (Q9UDY8 1-824): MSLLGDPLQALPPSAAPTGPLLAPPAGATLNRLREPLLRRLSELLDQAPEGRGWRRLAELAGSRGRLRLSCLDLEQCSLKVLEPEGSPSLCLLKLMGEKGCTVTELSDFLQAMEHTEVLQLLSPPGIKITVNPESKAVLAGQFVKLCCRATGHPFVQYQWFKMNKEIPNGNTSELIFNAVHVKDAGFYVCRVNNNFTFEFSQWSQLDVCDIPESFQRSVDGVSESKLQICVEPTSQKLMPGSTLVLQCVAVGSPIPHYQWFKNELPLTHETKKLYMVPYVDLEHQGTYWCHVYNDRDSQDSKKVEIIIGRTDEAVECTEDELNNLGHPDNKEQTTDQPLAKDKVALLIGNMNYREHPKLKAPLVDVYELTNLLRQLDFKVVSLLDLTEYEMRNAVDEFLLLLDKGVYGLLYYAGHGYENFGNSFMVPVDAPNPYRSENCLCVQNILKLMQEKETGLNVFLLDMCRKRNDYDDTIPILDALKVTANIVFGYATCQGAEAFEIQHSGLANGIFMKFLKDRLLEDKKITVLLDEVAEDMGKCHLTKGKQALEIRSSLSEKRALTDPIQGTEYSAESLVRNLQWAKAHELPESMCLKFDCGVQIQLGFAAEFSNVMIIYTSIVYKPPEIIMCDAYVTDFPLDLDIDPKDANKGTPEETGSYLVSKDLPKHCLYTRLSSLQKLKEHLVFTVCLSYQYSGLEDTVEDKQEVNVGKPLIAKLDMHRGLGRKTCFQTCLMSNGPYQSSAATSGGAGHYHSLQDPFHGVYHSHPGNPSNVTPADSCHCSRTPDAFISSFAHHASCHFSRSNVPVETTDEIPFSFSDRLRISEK
Assay type: cell-based
Set-up: endogenous in cells; host or cells: OCI-Ly3
Description: In the experiments, OCI-Ly3 cells were grown for 6 hours in the presence of the indicated concentrations of Examples 1-6, 9, and 10. Proteins were extracted, analyzed by Western blot, and membranes were immunoblotted for MALT1, CRBN, and Actin. Table 3 provides the results of experimental data obtained from the example compounds of the present disclosure. In particular, OCI-Ly3 cells were grown for 48 hours in the presence of the indicated concentrations of Examples 1-19. Proteins were extracted, analyzed by Western blot, and membranes were immunoblotted for MALT1, CRBN, and Actin. Western blot bands were quantified using Image Lab software. Results were normalized to Actin expression and presented as % MALT1 degradation relative to vehicle treated cells.

Promotion of MALT1 degradation (Western blot images, FIG. 1), promotion of MALT1 degradation:
C[C@@H](c1c(NC(=O)Nc2cnc(-n3nccn3)c(Cl)c2)cnc2cc(Cl)nn12)N(C)C(=O)CCOCCOCCOCCOCCNc1cccc2c1C(=O)N(C1CCC(=O)NC1=O)C2=O (stereo partly drawn) [Example 1, N—((S)-1-(2-Chloro-6-(3-(5-chloro-6-(2H-1,2,3-triazol-2-yl)pyridin-3-yl)ureido)pyrazolo[1,5-a]pyrimidin-7-yl)ethyl)-1-((2-(2,6-dioxopiperidin-3-yl)-1,3-dioxoisoindolin-4-yl)amino)-N-methyl-3,6,9,12-tetraoxapentadecan-15-amide]
CO[C@@H](C)c1c(NC(=O)Nc2cnc(-n3cc(CNC(=O)CCOCCOCCOCCOCCNc4cccc5c4C(=O)N(C4CCC(=O)NC4=O)C5=O)cn3)c(Cl)c2)cnc2cc(Cl)nn12 (stereo partly drawn) [Example 2, N-((1-(3-Chloro-5-(3-(2-chloro-7-((S)-1-methoxyethyl)pyrazolo[1,5-a]pyrimidin-6-yl)ureido)pyridin-2-yl)-1H-pyrazol-4-yl)methyl)-1-((2-(2,6-dioxopiperidin-3-yl)-1,3-dioxoisoindolin-4-yl)amino)-3,6,9,12-tetraoxapentadecan-15-amide]
CO[C@@H](C)c1c(NC(=O)Nc2cc(Cl)cnc2OCCNC(=O)CCOCCOCCOCCOCCNc2cccc3c2C(=O)N(C2CCC(=O)NC2=O)C3=O)cnc2cc(Cl)nn12 (stereo partly drawn) [Example 3, N-(2-((5-Chloro-3-(3-(2-chloro-7-((S)-1-methoxyethyl)pyrazolo[1,5-a]pyrimidin-6-yl)ureido)pyridin-2-yl)oxy)ethyl)-1-((2-(2,6-dioxopiperidin-3-yl)-1,3-dioxoisoindolin-4-yl)amino)-3,6,9,12-tetraoxapentadecan-15-amide]
C[C@@H](c1c(NC(=O)Nc2cnc(-n3nccn3)c(Cl)c2)cnc2cc(Cl)nn12)N(C)C(=O)CCOCCOCCNc1cccc2c1CN(C1CCC(=O)NC1=O)C2=O (stereo partly drawn) [Example 4, N—((S)-1-(2-Chloro-6-(3-(5-chloro-6-(2H-1,2,3-triazol-2-yl)pyridin-3-yl)ureido)pyrazolo[1,5-a]pyrimidin-7-yl)ethyl)-3-(2-(2-((2-(2,6-dioxopiperidin-3-yl)-1-oxoisoindolin-4-yl)amino)ethoxy)ethoxy)-N-methylpropanamide]
CO[C@@H](C)c1c(NC(=O)Nc2cnc(-n3cc(CNC(=O)CCOCCOCCNc4cccc5c4CN(C4CCC(=O)NC4=O)C5=O)cn3)c(Cl)c2)cnc2cc(Cl)nn12 (stereo partly drawn) [Example 5, N-((1-(3-Chloro-5-(3-(2-chloro-7-((S)-1-methoxyethyl)pyrazolo[1,5-a]pyrimidin-6-yl)ureido)pyridin-2-yl)-1H-pyrazol-4-yl)methyl)-3-(2-(2-((2-(2,6-dioxopiperidin-3-yl)-1-oxoisoindolin-4-yl)amino)ethoxy)ethoxy)propanamide]
CO[C@@H](C)c1c(NC(=O)Nc2cc(Cl)cnc2OCCNC(=O)CCOCCOCCNc2cccc3c2CN(C2CCC(=O)NC2=O)C3=O)cnc2cc(Cl)nn12 (stereo partly drawn) [Example 6, N-(2-((5-Chloro-3-(3-(2-chloro-7-((S)-1-methoxyethyl)pyrazolo[1,5-a]pyrimidin-6-yl)ureido)pyridin-2-yl)oxy)ethyl)-3-(2-(2-((2-(2,6-dioxopiperidin-3-yl)-1-oxoisoindolin-4-yl)amino)ethoxy)ethoxy)propanamide]
CO[C@@H](C)c1c(NC(=O)Nc2cc(Cl)cnc2OCCNC(=O)CCOCCOCCOCCOCCC(=O)N[C@H](C(=O)N2C[C@H](O)CC2C(=O)NCc2ccc(-c3scnc3C)cc2)C(C)(C)C)cnc2cc(Cl)nn12 (stereo partly drawn) [Example 9, N^1-(2-((5-Chloro-3-(3-(2-chloro-7-((S)-1-methoxyethyl)pyrazolo[1,5-a]pyrimidin-6-yl)ureido)pyridin-2-yl)oxy)ethyl)-N^16-((2S)-1-((4R)-4-hydroxy-2-((4-(4-methylthiazol-5-yl)benzyl)carbamoyl)pyrrolidin-1-yl)-3,3-dimethyl-1-oxobutan-2-yl)-4,7,10,13-tetraoxahexadecanediamide]
